Assay results: PubChem BioAssay AID504467 (National Center for Advancing Translational Sciences (NCATS), 2011)
Out of some 330,000 compounds screened, about 7,700 (2.3%) were called active. The inconclusive results got no clear call from the source; some entries with a clear call stand among them for comparison. The call rests on the fitted dose curve; in most records, active means well fitted inhibition curve with a large enough effect; inconclusive means small, poorly fitted or top-dose-only effect, or effect the other way; inactive means flat fitted curve, though single readings scatter. Potencies beside an inconclusive call are fits to weak or partial responses and may not hold up.

experiment: qHTS screen for small molecules that inhibit ELG1-dependent DNA repair in human embryonic kidney (HEK293T) cells expressing luciferase-tagged ELG1; conditions: HEK293T ELG1-luciferase reporter, luminescence, 16 h, DNA damage induced by 5-fluorouridine; activity change, negative = inhibition: at 46.1 µM (top of the series); further: nearly all actives have a fitted effect of over 55% in size
In short: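 5-Fluorouridine DNA damage + compound/DMSO, 2,000 cells/well, 16 h, 37 °C/5% CO2. ONE-Glo, 30 min RT, luminescence. Readout = decrease in reporter signal.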
On the % scale 0 is the no-effect control and ±100 the full control effect; potency means the concentration at half of the fitted maximal effect.

| Compound | activity change, negative = inhibition | Potency |
| --- | --- | --- |
| O=c1c2ccc(Cl)cc2nc2n1CC/C2=C\c1cccc(O)c1 | inactive: -2.55% | – |
| COc1ccc(-c2cccc(NC(=O)c3cccs3)c2)nn1 | – | inconclusive: 29.1 µM [inhibitor, single point] |
| Cc1cc(/C=C2/SC(=O)N(CC(=O)N3CCOCC3)C2=O)c(C)n1-c1ccccc1F | – | inconclusive: 2.31 µM [activator, partial curve] |
| Cc1cccc(OCC(=O)O/N=C(\N)Cc2cccs2)c1 | inactive: -6.33% | – |
| CCc1cccc(NC(=O)C2CCCN2S(=O)(=O)c2ccc3c(c2)CC(C)N3C(C)=O)c1 (configuration not stated) | – | inconclusive: 29.1 µM [inhibitor, single point] |
| CCC(C)(C)n1nnnc1C(c1cc2ccc(OC)cc2[nH]c1=O)N1CCc2ccccc2C1 (configuration not stated) | – | inconclusive: 14.6 µM [inhibitor, single point] |
| COc1ccc(-n2c(C)cc(C(=O)NC3CCCCC3)c2C)cc1 | – | inconclusive: 18.4 µM [activator, partial curve] |
| COc1ccccc1NC(=S)NN1CCN(C)CC1 | inactive: -0.241% | – |
| COc1ccc(NC(=S)NCC(c2ccco2)N2CCCC2)cc1 (configuration not stated) | inactive: 17.1% | – |
| O=C(NCCc1ccc(F)cc1)c1ccc2nccnc2c1 | – | inconclusive: 5.62 µM [activator, partial curve] |
| Cc1ccccc1NC(=O)c1ccc(NC(=O)c2ccco2)cc1 | – | inconclusive: 13 µM [activator, partial curve, poor fit] |
| N#CC1=C(N)Oc2n[nH]c(-c3cccs3)c2C1C1CCCCC1 (configuration not stated) | inactive: 1.88% | – |
| Cc1cccc(C)c1OCC(=O)OC/C(O)=C(\C#N)c1nc2ccccc2[nH]1 | inactive: 7.26% | – |
| Cn1cccc1C(=O)NCCc1ccc(Cl)cc1 | – | inconclusive: 14.6 µM [activator, partial curve] |
| Cc1cccc(CSc2nc(N)c(C#N)c(-c3cccs3)c2C#N)c1 | – | inconclusive: 29.1 µM [inhibitor, single point] |
| C=Cc1ccc(C2=CC(=O)C[C@H](c3ccc(OC)cc3)C2)cc1 | – | inconclusive: 18.3 µM [activator, partial curve, poor fit] |
| Cc1ccc(/C=N/Nc2nc(N3CCCCC3)nc(N3CCCCC3)n2)o1 | inactive: -21.4% | – |
| c1ccc(Cn2c[n+](Cc3ccccc3)c3ccccc32)cc1 | inactive: -5.35% | – |
| O=S(=O)(c1c(F)cccc1F)N1CCN(C(=S)NCc2ccc3c(c2)OCO3)CC1 | – | inconclusive: 20.6 µM [inhibitor, partial curve, poor fit] |
| Nc1ccc2c(c1)COC2=O | – | inconclusive: 23.1 µM [activator, partial curve] |
| Cc1c(C)c2ccc(OCC(=O)Nc3nccs3)cc2oc1=O | – | inconclusive: 1.64 µM [activator, partial curve] |
| COc1ccc(C(=O)NCC2(c3ccc(OC)c(OC)c3)CCCC2)c(OC)c1 | – | inconclusive: 20.6 µM [inhibitor, single point] |
| CCc1ccccc1OCC(=O)NC1CCCC1 | inactive: 17.6% | – |
| O=C(NC(=S)Nc1ccccc1N1CCOCC1)c1cccc([N+](=O)[O-])c1 | – | inconclusive: 29.1 µM [inhibitor, single point] |

Two entries from above in another layout:
Compound,"activity change, negative = inhibition",Potency
COc1ccc(-c2cccc(NC(=O)c3cccs3)c2)nn1,–,"inconclusive: 29.1 µM [inhibitor, single point]"
O=C(NC(=S)Nc1ccccc1N1CCOCC1)c1cccc([N+](=O)[O-])c1,–,"inconclusive: 29.1 µM [inhibitor, single point]"

Continuation:

| Compound | activity change, negative = inhibition | Potency |
| --- | --- | --- |
| CCn1cc(C2=NC(C)(C)CO2)c2ccccc21 | – | inconclusive: 29.1 µM [activator, partial curve, poor fit] |
| O=C1c2ccccc2C(=O)N1CCCc1cn(C[C@H]2CC[C@H](Cn3cc(CCCN4C(=O)c5ccccc5C4=O)nn3)O2)nn1 | – | active: 8.2 µM |
| CCC(CC)C(=O)Nc1nc(-c2ccc3c(c2)CCN3C(=O)C2CC2)c(C)s1 | – | active: 20.6 µM |
| O=C(CSc1n[nH]c(-c2ccccc2)n1)N1CCCC1 | – | inconclusive: 16.4 µM [activator, single point] |
| CCC1CCc2c(sc(NC(=O)C3CC=CCC3C(=O)O)c2C#N)C1 (configuration not stated) | inactive: -1.53% | – |
| CSc1nnc(C)c(/C=C/NOCc2cccc(F)c2)n1 | inactive: 2.67% | – |
| Cc1cccc(C)c1-n1nnnc1C1(Nc2ccccc2)CCCCC1 | – | inconclusive: 18.4 µM [inhibitor, partial curve, poor fit] |
| Brc1ccc2ncnc(Nc3cccc4ccccc34)c2c1 | inactive: 1.82% | – |
| O=C(NC1CCN(C(=S)NCc2ccco2)CC1)c1cccc(F)c1 | inactive: 1.91% | – |
| COc1ccc(CCN(C)C(=O)CCCN2C(=O)c3cccc4cccc(c34)C2=O)cc1OC | – | inconclusive: 23.1 µM [inhibitor, partial curve] |
| CC(=O)Nc1ccc(NC(=O)Cn2c(=O)n(-c3ccc(F)cc3)c(=O)c3oc4ccccc4c32)cc1 | – | inconclusive: 32.6 µM [inhibitor, single point] |
| O=c1cc(-c2ccccc2)c2ccc(O)c(CN3CCCCC3)c2o1 | inactive: 7.6% | – |
| NC(=O)CC(NC(=O)Cc1ccc(Br)cc1)c1ccc(N2CCCCCCC2)c([N+](=O)[O-])c1 (configuration not stated) | inactive: 11.4% | – |
| CC(C)(C)c1ccc(C(=O)NCCCNC(=O)c2ccco2)cc1 | inactive: 0% | – |
| Cc1ccccc1NC(=O)c1ccc(-n2cncn2)nc1 | inactive: -25.6% | – |
| NNC(=O)CCN1CCN(C(c2ccccc2)c2ccccc2)CC1 | inactive: -10.2% | – |
| CCc1ccc2[nH]c(=O)c(CN(CC3CCCO3)C(=S)NCc3ccco3)cc2c1 (configuration not stated) | – | active: 18.3 µM |
| Cc1ccc(S(=O)(=O)N2CCCC(C(=O)NC3CCCC3)C2)cc1Cl (configuration not stated) | inactive: 5.23% | – |
| CNC(=O)CSc1nnc(-c2ccco2)n1-c1cccc(C)c1 | – | inconclusive: 6.51 µM [activator, partial curve, poor fit] |
| CSc1nc(C)c2c(n1)N(c1ccc(C(F)(F)F)cc1)CC2 | – | inconclusive: 0.116 µM [activator, full curve, poor fit] |
| Cc1cc2ncn(CCC(=O)NC(C)(C)C)c2cc1C | – | inconclusive: 20.6 µM [inhibitor, single point] |
| COc1cc(/C=C2\C(=O)N(c3ccccc3)N=C2C)ccc1Oc1ccc([N+](=O)[O-])cc1[N+](=O)[O-] | – | inconclusive: 16.4 µM [activator, single point] |
| c1ccc(COc2ccc(Nc3ncnc4nc[nH]c34)cc2)cc1 | – | inconclusive: 2.31 µM [activator, full curve, poor fit] |
